# Taken from: PubChem BioAssay AID1159578 (Peter MacCallum Cancer Centre, 2015)
# Aim: 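Knock-downs that alter how fast lymphatic endothelial cells migrate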 (primary screen)
# Cells: human lymphatic endothelial cells
# Reagent: siRNA pool against human genes, 40 nM
# Duration: 48 h after transfection
# Read-out: 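High-content imaging of dye-stained cells in a scratch assay measures filled wound area and nuclei per well; duplicate means given as ratio to mock and robust z-score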
# Scale: migration robust z-score: higher = faster migration into the scratch; migration relative to mock: higher = more scratch area covered than mock; nuclei per well: higher = more cells in the well
# Hit rule: 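Migration changed when robust z exceeds 2 or falls below -2 and mean nuclei number is at least 3300; otherwise not called changed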
# Calls: active = migration changed; inactive = no migration change, or too few cells
# Shown is a random part of about 18,000 reagents. About 1,030 of them (5.7%) were called active. 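Inactive calls also include pools with fewer than 3300 nuclei, whose migration was not assessed.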 Raw values vary from plate to plate and are shown uncorrected.
target,PubChem SID,migration robust z-score,migration class with cell-count check,migration relative to mock,"nuclei per well, duplicate mean",Outcome
TIMM22 (translocase of inner mitochondrial membrane 22),SID255357222,-1.52,migration z between -2 and 2; enough cells,0.49,5403,inactive
GID4 (GID complex subunit 4 homolog),SID255360164,1.15,migration z between -2 and 2; enough cells,1.18,6692,inactive
IFIT2 (interferon induced protein with tetratricopeptide repeats 2),SID255350397,-0.81,migration z between -2 and 2; enough cells,0.68,5800,inactive
GABRD (gamma-aminobutyric acid type A receptor subunit delta),SID255349797,-1.32,under 3300 nuclei; migration not judged,0.55,3180,inactive
STYXL2 (serine/threonine/tyrosine interacting like 2),SID255361990,-0.65,migration z between -2 and 2; enough cells,0.72,6501,inactive
PLPPR1 (phospholipid phosphatase related 1),SID255358243,-0.6,migration z between -2 and 2; enough cells,0.73,5216,inactive
FSD1L (fibronectin type III and SPRY domain containing 1 like),SID255361102,0.21,migration z between -2 and 2; enough cells,0.84,5808,inactive
MYO1G (myosin IG),SID255359802,-0.43,migration z between -2 and 2; enough cells,0.78,5746,inactive
OR56B4 (olfactory receptor family 56 subfamily B member 4),SID255363959,-1.32,migration z between -2 and 2; enough cells,0.54,5412,inactive
ZNF200 (zinc finger protein 200),SID255353270,0.77,migration z between -2 and 2; enough cells,1.08,4246,inactive

Copied from the list.
GABRD (gamma-aminobutyric acid type A receptor subunit delta) [SID255349797], Outcome = inactive
Value for OR56B4 (olfactory receptor family 56 subfamily B member 4) [SID255363959] under “migration relative to mock”: 0.54

Continued:
target,PubChem SID,migration robust z-score,migration class with cell-count check,migration relative to mock,"nuclei per well, duplicate mean",Outcome
CSAD (cysteine sulfinic acid decarboxylase),SID255357690,-1.38,migration z between -2 and 2; enough cells,0.52,6354,inactive
PF4 (platelet factor 4),SID255351514,0.57,migration z between -2 and 2; enough cells,1.04,4986,inactive
TRPM4,SID255358167,0.39,migration z between -2 and 2; enough cells,0.88,5122,inactive
FBXL7 (F-box and leucine rich repeat protein 7),SID255356060,-0.28,migration z between -2 and 2; enough cells,0.75,5646,inactive
SAMD14 (sterile alpha motif domain containing 14),SID255364068,1.17,migration z between -2 and 2; enough cells,1.19,6680,inactive
NRK (Nik related kinase),SID255364130,0,migration z between -2 and 2; enough cells,0.8,4757,inactive
LARP1B (La ribonucleoprotein 1B),SID255358435,-0.74,migration z between -2 and 2; enough cells,0.69,6278,inactive
TBC1D2 (TBC1 domain family member 2),SID255358629,-0.07,migration z between -2 and 2; enough cells,0.87,5466,inactive
ANKRD20A1 (ankyrin repeat domain 20 family member A1),SID255361243,0.92,migration z between -2 and 2; enough cells,1.12,6186,inactive
SLC47A2,SID255363298,-4.41,migration z below -2; enough cells,-0.26,5427,active
KCNH5 (potassium voltage-gated channel subfamily H member 5),SID255356940,0.29,migration z between -2 and 2; enough cells,0.86,5960,inactive
GAL3ST3 (galactose-3-O-sulfotransferase 3),SID255361737,-0.18,migration z between -2 and 2; enough cells,0.77,4970,inactive
MTHFR (methylenetetrahydrofolate reductase),SID255351060,-1.25,migration z between -2 and 2; enough cells,0.56,6448,inactive
